{"source": "patent US20140134136A1", "about": "“COMPOSITIONS AND METHODS FOR AUDITORY THERAPY” (MASSACHUSETTS EYE AND EAR INFIRMARY, priority 2012, published 2014)", "system": "Atoh1-ER-DsRed fusion protein", "assay": "Nuclear translocalization assay (DsRed fluorescence of isolated nuclei)", "assay_type": "cell-based", "settings": "HEK cells transfected with CMV-Atoh1-ER-DsRed; 100 mM 4OHT for three days; p=0.07 vs no 4OHT", "method": "Constructs were generated to express inducible Atoh1-ER fusion proteins (FIG. 1).\nHEK cells were cultured until 50% confluent in 6-well culture dishes (type) then subjected to transfection using 3:1 target DNA to Fugene 6 Transfection Reagent (ROCHE). […] Cells were then processed for cytosolic and nuclear fractionation (BioVision). The isolated nuclear fraction collected from each of 5 sample wells per condition was mounted to a coverslip and average pixel density from 5 regions of interest (206.5×165.2 pixel at 20× magnification) was measured with a Cy3 ([…]) filter on a Zeiss epifluorescent microscope using MetaMorph software.", "note": "For at least one compound, name, drawing or mass did not settle the structure."}
{"smiles": "CC/C(=C(\\c1ccc(O)cc1)c1ccc(OCCN(C)C)cc1)c1ccccc1", "note": "[4OHT]", "values": [{"measurement": "568 nM fluorescence of remaining nuclei", "result": "597.8+/−40/46"}]}
